From article PMC5996148
The list shows a part of the results.

Legend:
Test in all cases: protein microarray (ProtoArray v5.0), streptavidin-Alexa Fluor 647
Conditions in all cases: 3'-biotin; 20 mM Tris (pH 7.5), 5 mM MgCl2, 100 mM KCl, 0.1% Tween-20, A/T-rich and random oligonucleotide blockers; temperature not stated; high values mean tight binding
PALM (human) = test system: PALM (human)
PALM2 (human) = test system: PALM2 (human)
PANK1 (human) = test system: PANK1 (human)
PANK2 (human) = test system: PANK2 (human)
PANK4 (human) = test system: PANK4 (human)
PAPOLA (human) = test system: PAPOLA (human)
PARD6B (human) = test system: PARD6B (human)
PARP11 (human) = test system: PARP11 (human)
PARVG (human) = test system: PARVG (human)
PBEF1 (human) = test system: PBEF1 (human)

## GGGAGGCTGAGGCAGG [G4-1 biotinylated (PQS2)]
PALM (human)
  binding signal: -0.297 z-score
PALM2 (human)
  binding signal: -0.339 z-score
PANK1 (human)
  binding signal: -0.34 z-score
PANK2 (human)
  binding signal: -0.317 z-score
PANK4 (human)
  binding signal: -0.339 z-score
PAPOLA (human)
  binding signal: -0.348 z-score
PARD6B (human)
  binding signal: -0.319 z-score
PARP11 (human)
  binding signal: -0.264 z-score
PARVG (human)
  binding signal: -0.36 z-score
PBEF1 (human)
  binding signal: -0.335 z-score
